From PubChem BioAssay AID2551 (National Center for Advancing Translational Sciences (NCATS), 2010)
Among all 310,000 compounds or so, about 17,000 (5.5%) were called active. Inconclusive means that the source gave no clear call. Such entries were picked first, then a sample of the others. Calls follow the shape of the dose curve; as a rule, active = well fitted inhibition curve with a large enough effect; inconclusive = small, poorly fitted or top-dose-only effect, or effect the other way; inactive = no such curve, though single readings can be large or run the other way. Where the call is inconclusive, the potency comes from a doubtful curve fit.

Protein sequences, listed by entry. Tags and fused reporters are not part of them. Lines headed by an entry give the natural chain unless they say otherwise; changes in a name come on top.
UniProt P51450: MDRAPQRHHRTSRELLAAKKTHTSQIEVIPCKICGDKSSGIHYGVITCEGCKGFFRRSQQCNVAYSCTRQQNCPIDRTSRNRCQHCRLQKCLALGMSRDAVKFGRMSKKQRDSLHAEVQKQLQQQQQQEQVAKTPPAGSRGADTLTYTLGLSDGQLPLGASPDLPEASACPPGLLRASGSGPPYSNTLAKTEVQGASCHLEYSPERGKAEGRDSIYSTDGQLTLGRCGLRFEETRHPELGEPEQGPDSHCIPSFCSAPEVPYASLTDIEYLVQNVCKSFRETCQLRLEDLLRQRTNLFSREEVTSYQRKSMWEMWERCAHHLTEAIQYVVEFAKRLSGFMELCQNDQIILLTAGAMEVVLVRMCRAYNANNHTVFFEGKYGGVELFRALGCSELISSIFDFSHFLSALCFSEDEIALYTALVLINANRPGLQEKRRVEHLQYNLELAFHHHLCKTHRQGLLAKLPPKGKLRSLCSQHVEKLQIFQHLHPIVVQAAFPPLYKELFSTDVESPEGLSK

Target: Nuclear receptor ROR-gamma (Mus musculus) (UniProt P51450)
Experiment: qHTS for inhibitors of ROR gamma transcriptional activity; also: nearly all actives have a fitted effect of over 60% in size
Settings: Drosophila S2 Gal4-RORgamma UAS-luciferase reporter, 20 h; activity change, negative = inhibition: at 53.6 µM (top of the series)
Text: NIH Molecular Libraries Probe Production Network [MLPCN] NIH Chemical Genomics Center [NCGC] MLPCN Grant: R03 DA026211-01 Assay Provider: Dan Littman, New York University Assay Overview: The retinoic acid-related orphan receptor (ROR) gamma is a transcription factor that has a central role in the differentiation of Th17 cells, a subset of T helper cells that secrete the inflammatory cytokines IL-17, IL-17F, and IL-22. Th17 cells have been implicated in graft versus host disease, autoimmune disease and asthma. ROR gamma is induced in naive T helper cells in the presence of TGF-beta combined with IL-6, IL-21, or IL-23, and thereafter directs the expression of the Th17 lineage cytokines. To study the mechanism of action of ROR gamma, an insect cell-based assay was screened. This Drosophila Schneider cell line was stably transfected with two vectors: a gene expressing a fusion of the Gal4 DNA binding domain and ROR gamma transactivation domain under the control of the metallothionine promoter and a Photinus luciferase reporter regulated by the Gal4 binding site enhancer, UAS. […] Small molecule inhibitors of ROR gamma activity are detected by a decrease in luciferase reporter activity.
Assay Protocol Summary: For screening, 600 cells in 4 uL/well were dispensed into white solid 1536-well plates (Grenier) using a solenoid-based dispenser. Following transfer of 23 nL compound or DMSO vehicle by a pin tool, the plates were incubated 1 hr at ambient temperature, and 1 uL/well copper sulfate (700 uM final concentration) was added. The plates were centrifuged 15 s at 1000 RPM and incubated 20 hr at ambient temperature. After addition of 1.5 uL Photinus luciferase detection reagent, the plates were incubated 10 min at ambient temperature and then read by an ViewLux (Perkin Elmer) to detect luminescence. Keywords: NIH Roadmap, MLPCN, MLI, MLSMR, qHTS, NCGC, qHTS, nuclear hormone receptor, retinoic acid-related orphan receptor, ROR gamma
% is scaled to controls: 0 for no effect and ±100 for the full control effect; potency is read from the fitted curve at half-maximal effect.

SMILES	activity change, negative = inhibition	Potency
Cc1oc(-c2ccc(Cl)cc2)nc1CS(=O)CC(=O)NCc1ccccc1 (stereo not given)	inactive: -12.1%	–
O=C(Cn1ncc(Cl)c(Cl)c1=O)N1CCN(Cc2ccccc2)CC1	–	inconclusive: 35.5 µM [inhibitor, single point]
CCOC(=O)c1[nH]ncc1CN1CCCC(C(=O)c2ccc(SC)cc2)C1 (stereo not given)	–	inconclusive: 11.2 µM [activator, partial curve]
Cc1ccsc1/C=N/n1c(=S)[nH]nc(C)c1=O	–	inconclusive: 15.8 µM [inhibitor, single point]
CCNc1ncc2nc(C)c(=O)n(C3CC3)c2n1	inactive: 0.957%	–
CCOC(=O)C1=C(N)n2c(s/c(=C\c3cccnc3)c2=O)=C(C(=O)OCC)C1c1cccnc1 (stereo not given)	inactive: 1.43%	–
O=C(N/N=C/c1cccs1)c1cc(-c2ccc(Cl)s2)[nH]n1	–	active: 10 µM
CN1/C(=C\C(=O)COC(=O)c2ccc([N+](=O)[O-])o2)C(C)(C)c2ccccc21	–	inconclusive: 12.6 µM [inhibitor, partial curve, poor fit]
CCC(Sc1nc2ccccc2s1)C(=O)Nc1cc(C)on1 (stereo not given)	–	inconclusive: 11.2 µM [activator, partial curve]
COc1ccc(OCCCCOc2ccccc2Cl)cc1	–	inconclusive: 15.8 µM [activator, single point]
Cc1ccc(C(=O)N/N=C\c2ccc([N+](=O)[O-])s2)cn1	–	active: 2.82 µM
Cc1cc(NC(=O)c2ccc(S(=O)(=O)N(C)C)cc2)no1	inactive: -16.4%	–
Cc1ccc(/C=C/C2=C[C@]3(C)C[C@]2(C)[C@H](c2ccc(C)cc2)CC3=O)cc1	inactive: 10.2%	–
CCC(NC(=O)NNC(N)=S)(C(F)(F)F)C(F)(F)F	–	active: 11.2 µM
CC(=O)NCC(=O)N1CCCC(C(=O)c2ccc(-c3ccccc3)c(F)c2)C1 (stereo not given)	–	inconclusive: 11.2 µM [activator, partial curve]
CCN1C(=O)/C(=C\N(C(C)=O)c2ccccc2)OC1=S	–	active: 7.94 µM
COCCNC(=S)N/N=C/c1c(C)[nH]c2ccccc12	–	active: 11.2 µM
CCOC(=O)c1cnc2c(ccc3ccccc32)c1NCCN(C)C	inactive: 13.3%	–
COc1ccc(-c2nc3c(c(=O)[nH]c(=O)n3Cc3ccccc3)n2Cc2ccccc2)cc1	inactive: 6.52%	–
COc1cccc(N/C(SCc2cccc([N+](=O)[O-])c2)=C(/C#N)C(N)=O)c1	–	inconclusive: 11.2 µM [inhibitor, partial curve]
Cc1ccc(NS(=O)(=O)c2cccc3cccnc23)c(Br)c1	inactive: -31.1%	–
CC(=O)Nc1ccc(S(=O)(=O)Nc2cccc(NC(=O)c3ccco3)c2)cc1	–	inconclusive: 35.5 µM [inhibitor, single point]
NC(N)=NS(=O)(=O)c1ccc(NC(=S)NC(=O)c2ccc3c(c2)OCO3)cc1	inactive: 3.63%	–
O=C(Nn1c(Cc2cccs2)nc2ccccc2c1=O)c1ccc(F)c(F)c1	–	inconclusive: 0.282 µM [activator, full curve, poor fit]
COc1cccc(/C=N/NC(=O)c2ccc(=O)n(C)c2)c1OC	–	inconclusive: 11.2 µM [inhibitor, single point]

One compound at a time, as listed above.
`COc1ccc(OCCCCOc2ccccc2Cl)cc1` in the list: Potency: inconclusive: 15.8 µM [activator, single point]
`O=C(N/N=C/c1cccs1)c1cc(-c2ccc(Cl)s2)[nH]n1` in the list: Potency: active: 10 µM

A few values from the entries so far:
Under activity change, negative = inhibition, CCNc1ncc2nc(C)c(=O)n(C3CC3)c2n1 has the entry inactive: 0.957%
Under Potency, CCN1C(=O)/C(=C\N(C(C)=O)c2ccccc2)OC1=S has the entry active: 7.94 µM

Remaining list, next part.

SMILES	activity change, negative = inhibition	Potency
CCOC(=O)c1c(S(=O)(=O)Nc2ccc(F)cc2C)c(C)n(C)c1C	inactive: 2.49%	–
COc1ccc(Br)cc1/C=N/Nc1ccccn1	–	inconclusive: 25.1 µM [inhibitor, single point]
Cc1ccc(S(=O)(=O)NCc2ccncc2)cc1	inactive: -14.9%	–
COc1cccc([C@@H]2Oc3ccc(OC)cc3C[C@H]2OC(=O)NS(=O)(=O)c2ccc(C)cc2)c1	–	inconclusive: 3.16 µM [inhibitor, single point]
C[C@@H]1CCC2[C@@H](C)[C@@H](O)O[C@@H]3O[C@@]4(C)CC[C@@H]1[C@@]23OO4 (stereo not given in full)	inactive: -7.49%	–
CP(C)(=O)CCP(=O)(c1ccccc1)c1ccccc1	inactive: -26.8%	–
CCOC(=O)C1C(=O)C=C(c2cccs2)CC1c1ccccc1 (stereo not given)	inactive: 0.102%	–
S=C(Nc1ccc2c(c1)OCCO2)Nc1ccc2c(c1)OCO2	–	inconclusive: 35.5 µM [inhibitor, single point]
COc1nc(N/N=C/c2ccccc2F)nc(N2CCCCC2)n1	–	inconclusive: 10 µM [inhibitor, single point]
COC(=O)C/C=C\[C@@H](C)[C@@H](/C=N\O[C@@H](C)CN1CCCCc2nc(C)c(C)cc21)NS(=O)(=O)c1ccc(C)cc1	inactive: -1.87% [at 10 µM]	–
CC(=O)Oc1ccc(C(=O)Nc2ccc(C3(C#N)CCCC3)cc2)cc1	–	active: 0.355 µM
Cc1cc(C)nc(Nc2n[nH]c(COc3ccc(Cl)cc3)n2)n1	inactive: -22.1%	–
COc1ccccc1NS(=O)(=O)c1ccc(O)c(C(=O)OCC(=O)N2c3ccccc3CC2C)c1 (stereo not given)	–	inconclusive: 6.31 µM [inhibitor, single point]
Cc1ccc(Nc2nc(-c3ccc(O)c(O)c3)cs2)nc1	–	active: 12.6 µM
Cc1ccc(NC(=O)c2ccccc2NS(=O)(=O)c2ccc(F)cc2)cc1S(=O)(=O)N1CCCCC1	–	inconclusive: 35.5 µM [inhibitor, single point]
CSc1ccc(/C=N/NC(=O)CN2CCN(Cc3ccccc3Cl)CC2)cc1	–	inconclusive: 1 µM [activator, full curve, poor fit]
O=C(COc1ccccc1)N1CCN(S(=O)(=O)c2cccs2)CC1	–	inconclusive: 0.355 µM [activator, partial curve, poor fit]
COc1ccc(NC(=O)c2cccc(-c3ccc(O)cc3)c2)cn1	inactive: -0.512%	–
CCn1ncc(Cl)c1C(=O)NC(=S)Nc1ccccc1Br	–	active: 8.91 µM
COc1ccc(S(=O)(=O)NC2CCCCC2)cc1C(=O)N1CCCCC1	inactive: -35.8%	–
COc1ccc([N+](=O)[O-])cc1NC(=O)Nc1ccc(OC)c(OC)c1	–	inconclusive: 15.8 µM [inhibitor, single point]
O=C(Nc1ccc2c(c1)OCCO2)c1cncc(Br)c1	–	inconclusive: 8.91 µM [inhibitor, single point]
O=C(NCc1ccccn1)c1cc(-c2ccc(-c3ccccc3)cc2)nc2ccccc12	–	inconclusive: 0.501 µM [activator, full curve, poor fit]
CCCN1C(=O)/C(=C/c2ccc(C)o2)NC1=S	–	inconclusive: 17.8 µM [inhibitor, single point]
Cc1cccc(-c2csc(N)c2C(=O)OC(C)C)c1	–	inconclusive: 20 µM [activator, partial curve]

SMILES	activity change, negative = inhibition	Potency
COc1ccc(C(C)(C)C)cc1NC(=O)CCNC(=O)c1ccco1	–	inconclusive: 6.31 µM [activator, single point]
O=C(/C=C/c1ccco1)NC(=S)Nc1ccc(N2CCOCC2)c(Cl)c1	–	active: 1.78 µM
Cc1ccccc1OCC(=O)NNC(=O)CCc1ccccc1	inactive: -13.4%	–
Brc1ccc(-c2nn3c(-c4ccco4)nnc3s2)o1	inactive: 20.9%	–
COc1ccccc1CNc1ncnc2ccc(-c3ccccc3C#N)cc12	–	inconclusive: 11.2 µM [activator, partial curve]
Cc1cc2c(c(=O)n1Cc1ccccc1)C1O[C@](c3ccsc3)(Cc3ccccc31)O2	inactive: 13.4% [at 10 µM]	–
CCCC(=O)NC(=S)Nc1cccc(NC(=O)c2ccccc2Cl)c1	–	inconclusive: 15.8 µM [inhibitor, single point]
CC(C)(C)c1ccc(CN2C(=O)c3ccccc3S2(=O)=O)cc1	inactive: 22.5%	–
COC(=O)c1cc(C(=O)c2cc(F)ccc2O)cn2c(=O)c3c(C)c(C)sc3nc12	inactive: 7.57%	–
Cc1ccc(-c2nc(=O)[nH]c3ccc(Br)cc23)cc1	inactive: -14.9%	–
Cc1cccc(-c2nnc(SCC3CNC(=O)O3)n2-c2ccc(Cl)cc2)c1 (stereo not given)	–	inconclusive: 20 µM [inhibitor, single point]
Cn1c(N2CCOCC2)nc(-c2ccccc2)c1-c1ccccc1	inactive: -17.8%	–
O=C(N/N=C/c1cccc(OC(=O)N2CCOCC2)c1)c1cccs1	–	inconclusive: 2.82 µM [activator, partial curve]
O=c1c2ccc([N+](=O)[O-])cc2ncn1CCOc1ccccc1	inactive: 4.1%	–
Cc1cc(NC(=O)c2cc(-c3ccc(OC(C)C)cc3)nc3ccccc23)no1	inactive: -12%	–
COc1cc2c(cc1OC)C(c1cc3cc4c(cc3[nH]c1=O)OCO4)N(C(=O)C(C)C)CC2 (stereo not given)	–	inconclusive: 15.8 µM [activator, single point]
Cc1ccc(OCc2ccc(C(=O)NN)o2)c([N+](=O)[O-])c1	inactive: -63.6%	–
Cc1[nH]nc2nc(SCC(=O)NCCC3=CCCCC3)n(-c3ccc(Br)cc3)c(=N)c12	–	inconclusive: 35.5 µM [inhibitor, single point]
Clc1ccc(C2[C@H]3CN(Cc4ccc(-c5ccccc5)cc4)[C@H](c4ccccc4)C34CC2(c2cccnc2)C4)cn1 (stereo not given in full)	–	inactive
CNC(=S)N1N=C(c2ccc(C)cc2)CC1c1ccc(OC)cc1 (stereo not given)	–	active: 11.2 µM
O=C(Cn1cc(/C=C\[N+](=O)[O-])c2ccccc21)Nc1ccccc1	–	inconclusive: 25.1 µM [inhibitor, single point]
O=c1cc(N2CCCCC2)c(-c2ccccc2)nn1Cc1ccc(Cl)cc1	–	inconclusive: 20 µM [activator, single point]
COc1ccc(NC(=S)N2CCC(c3ccc(C)cc3)C2)cc1 (stereo not given)	–	inconclusive: 14.1 µM [inhibitor, single point]
CN1CCN(c2ccc(NC(=O)c3ccc4ccccc4c3)cc2)CC1	–	active: 11.2 µM
O=C1/C(=C\c2cccnc2)Sc2ccccc21	–	inconclusive: 31.6 µM [inhibitor, single point]
